PubChem BioAssay AID1224828, NIAID | 2016
Aim: 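Knock-downs that increase or decrease LPS-induced p65 nuclear translocation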 (primary screen). System: mouse RAW264.7 G9 macrophage reporter cells (GFP-p65, Tnf promoter-mCherry). Knock-down reagent: siRNA pool against mouse genes, 100 nM. Time to read-out: 2 days siRNA transfection, then 40 min LPS before fixation. Treatment: LPS (Salmonella minnesota R595) at 10 ng/ml. Measurement: 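Microscopy ratio of nuclear to perinuclear-ring GFP-p65 signal, scaled to the plate median; gene score is the average of two replicate robust z-scores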. Reading the numbers: p65 translocation robust z-score: higher = more nuclear NF-kappaB p65 after LPS than the plate median; nuclear/cytoplasmic p65 ratio: higher = more nuclear NF-kappaB p65. Call rule: 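Active if robust z is above 3.3 (negative regulators) or below -1.56, the Tlr4 control median (positive regulators); activity score 50 or more; control wells not called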. Calls: active = hit (p65 shift raised or lowered); inactive = no clear change.
This is one part, drawn at random, of about 17,000 reagents tested. Of all reagents, 762 (4.5%) are marked active. 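Active calls include both raised and lowered p65 entry, mostly lowered; wells with fewer than 50 cells lack a z-score.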 Raw values are not corrected between plates. Entries without a mark were called inactive. Reagent sequences are not shown.

no.	gene symbol	p65 translocation robust z-score	nuclear/cytoplasmic p65 ratio, rep 1	nuclear/cytoplasmic p65 ratio, rep 2	low cell count flag
1	Ccdc85a (coiled-coil domain containing 85A)		1.45	1.39	fewer than 50 cells per well; well left out of scoring
2	Or6c206 (olfactory receptor family 6 subfamily C member 206)		1.33	1.15	fewer than 50 cells per well; well left out of scoring
3	Arhgap44 (Rho GTPase activating protein 44)		1.27	1.68	fewer than 50 cells per well; well left out of scoring
4	Cfap36 (cilia and flagella associated protein 36)	-0.87	1.16	0.865	enough cells to score
5	Prkcd (protein kinase C, delta)	-0.53	1.53	1.36	enough cells to score
6	Ifna16 (interferon alpha 16)	-1.49	1.22	1.22	enough cells to score
7	Akr1e1 (aldo-keto reductase family 1, member E1)	-1	1.49	1.45	enough cells to score
8	Hoxc9 (homeobox C9)	0.86	1.56	1.48	enough cells to score

3 entries already listed, arranged by “nuclear/cytoplasmic p65 ratio, rep 2”, ascending.
gene symbol	p65 translocation robust z-score	nuclear/cytoplasmic p65 ratio, rep 1	nuclear/cytoplasmic p65 ratio, rep 2	low cell count flag
Cfap36 (cilia and flagella associated protein 36)	-0.87	1.16	0.865	enough cells to score
Prkcd (protein kinase C, delta)	-0.53	1.53	1.36	enough cells to score
Arhgap44 (Rho GTPase activating protein 44)		1.27	1.68	fewer than 50 cells per well; well left out of scoring

Additional entries:
no.	gene symbol	p65 translocation robust z-score	nuclear/cytoplasmic p65 ratio, rep 1	nuclear/cytoplasmic p65 ratio, rep 2	low cell count flag
9	Chst1 (carbohydrate sulfotransferase 1)	0.07	1.66	1.73	enough cells to score
10	Jrkl (Jrk-like)	0.56	1.73	1.67	enough cells to score
11	Pnpla8 (patatin-like phospholipase domain containing 8)	0.42	1.69	1.67	enough cells to score
12	Anxa7 (annexin A7)	0.3	1.64	1.69	enough cells to score
13	1700065D16Rik (RIKEN cDNA 1700065D16 gene)	-0.15	1.31	1.4	enough cells to score
14	Crem (cAMP responsive element modulator)	-0.6	1.53	1.64	enough cells to score
15	Cep85 (centrosomal protein 85)	2.07	1.72	1.69	enough cells to score
16	Eif3e (eukaryotic translation initiation factor 3, subunit E)	0.1	1.51	1.35	enough cells to score
17	Zfp810 (zinc finger protein 810)	-0.79	1.47	1.71	enough cells to score
18	Hook3 (hook microtubule tethering protein 3)	-1.13	1.52	1.34	enough cells to score
19	Arg1 (arginase, liver)	0.65	1.79	1.64	enough cells to score
20	Naglu (alpha-N-acetylglucosaminidase (Sanfilippo disease IIIB))	-0.13	1.34	1.41	enough cells to score
21	Or6b1 (olfactory receptor family 6 subfamily B member 1)		1.39	1.08	fewer than 50 cells per well; well left out of scoring
22	Acy3 (aminoacylase 3)		1.38	1.57	fewer than 50 cells per well; well left out of scoring
23	Or13c7c (olfactory receptor family 13 subfamily C member 7C)	-1.52	1.4	1.21	enough cells to score
24	Rbms3 (RNA binding motif, single stranded interacting protein)	-0.33	1.53	1.6	enough cells to score
